# Percent effect of library compounds

Sequences of proteins named here, by UniProt entry; tags and fusion partners are left off. Residues count along the entry.
UniProt Q4DA54, 1-478: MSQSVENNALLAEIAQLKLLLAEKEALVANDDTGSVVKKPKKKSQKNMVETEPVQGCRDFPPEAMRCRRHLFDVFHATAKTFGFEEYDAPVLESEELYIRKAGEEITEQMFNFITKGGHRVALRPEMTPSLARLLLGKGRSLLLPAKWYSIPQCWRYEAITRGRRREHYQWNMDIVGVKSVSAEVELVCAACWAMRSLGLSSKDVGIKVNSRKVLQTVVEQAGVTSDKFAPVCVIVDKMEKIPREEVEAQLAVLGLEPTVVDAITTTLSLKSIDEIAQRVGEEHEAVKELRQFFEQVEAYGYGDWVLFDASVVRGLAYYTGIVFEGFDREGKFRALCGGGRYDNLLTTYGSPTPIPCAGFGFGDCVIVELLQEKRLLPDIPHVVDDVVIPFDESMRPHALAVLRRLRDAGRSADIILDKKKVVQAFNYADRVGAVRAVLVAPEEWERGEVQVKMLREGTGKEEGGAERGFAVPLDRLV

From ChEMBL document CHEMBL3988442, “University of Dundee, Small-Polar-MMV Screening Library” (2021).

The filed quantity is “Percent Effect” (%). How 0% and 100% were set is not recorded. Most values in the screen are low, and negative values occur. Compounds were drawn at random from those tested, without regard to their results.

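Histidine-tRNA ligase, Trypanosoma cruzi CL Brener (UniProt Q4DA54). Enzyme assay of histidyl-tRNA synthetase; the read-out is not stated. Compounds at 30 µM. Direction is inferred from retests: higher values go with stronger inhibition. Size under these conditions: about 69,000 compounds, about 31 of them at 50% or above in at least one test.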

structure | percent effect
CN1CCOC(CNCc2cccc(OC(F)(F)F)c2)C1 (stereo not shown) | 2.326
CC1=Nc2c(c(=O)[nH]n2C(C)C)C(c2ccc3c(c2)OCCO3)S1 (stereo not shown) | 6.433
Cc1cncc(C(=O)N2CCC(Cn3cc(-c4ccsc4)nn3)CC2)c1 | 6.667
Cc1ccc(C(=O)N2C[C@@H]3OCCN(C(C)C)[C@@H]3C2)cn1 | 7.563
COc1cc(C(=O)N(Cc2cnn(C)c2)C(C)C)ccc1OCC(N)=O | -2.273
Cc1ccc(CN2CCn3c(C(=O)N(C)C)cnc3C2)cc1 | 9.804
CSc1ncc(CN2C[C@H]3CC[C@@H]2CN(C2CCOCC2)C3)cn1 | 14.29
O=C(Cc1ccc2c(c1)OCCO2)N1CCCC(n2cccn2)C1 (stereo not shown) | -0.3774
CN(C)C(=O)c1cn[nH]c1C1CCCN1Cc1nccn1C (stereo not shown) | -0.8571
O=C(O)c1ccnc(-c2ccnc(COc3cccc(F)c3)n2)c1 | 3.922
CC[C@H](N)C(=O)Nc1nn(CC(F)(F)F)c2cc(OC(C)C)ccc12 | 3.636
CN(C)c1cncc(-c2ccnc3c2ccn3C)n1 | -1.961
Cc1cc(C)n(C2CN(CCc3ccncc3)C2)n1 | 11.06
FC1(F)CCN(Cc2ccncc2)CC12CCN(c1cnccn1)C2 (stereo not shown) | 7
Cn1cc(CN2CC[C@H](O)[C@@H]2Cc2ccncc2)cn1 | 4.972
NC(=O)c1ccc(N2CCCCC2)c(NC(=O)c2cc(Br)ccc2Cl)c1 | 17.26
O=C(NCc1c(F)cccc1Cl)c1cc(CN2CCCC(O)C2)on1 (stereo not shown) | 1.734
CCN(CCNC(=O)c1cccc(C)c1C)C1CC1 | 2.579
N#Cc1ccccc1OCCN1CCN(C(=O)C2CCCC2)CC1 | -4.598
CC(C)Cc1cc(NC(=O)c2ccc3[nH]nnc3c2)n(C)n1 | 9.091
Cc1nccn1CC1CCCN1S(=O)(=O)Cc1cccc(C#N)c1 (stereo not shown) | 1.153
CN(Cc1cn(CC2CCNCC2)nn1)CC1CCCCO1 (stereo not shown) | -1.739
Cc1ccc(OC2(C(=O)O)CCN(C(=O)c3cccs3)CC2)cn1 | 3.061
O=C(Cc1ccc2c(c1)OCCO2)NC1CCCC1 | -1.527
CCCn1c(C)c(CC(=O)N(C)CCO)c2c1CC(C)(C)CC2=O | 0.4484
CN(Cc1ccco1)Cc1cnc2n1CCN(c1ccccn1)CC2 | 7.362
CCCc1cc(CN(C)C2CSCCSC2)n[nH]1 | -0.9804
Cc1c[nH]c(C2COCCN2S(=O)(=O)c2cn[nH]c2)n1 (stereo not shown) | 5.323
CC(=O)N1CCN(Cc2cccs2)CC2(CC(=O)N(C)C2)C1 (stereo not shown) | 7.212
CCCNS(=O)(=O)c1cc2c3c(c1)c(C)cc(=O)n3CCC2 | 7.576
O=C1CNc2ncnc(Nc3cccc(Cn4cccn4)c3)c2N1 | 3.96
CN1CCc2[nH]cnc2C12CCN(C(=O)CCc1cccs1)CC2 | 0
O=C1CC(c2ccccc2)C2(CCN(CC3CC3)CC2)N1 (stereo not shown) | -1.622
CCC(CO)NCc1ccc(-c2ccccc2F)o1 (stereo not shown) | 11.34
COCCN(CCOC)C(=O)c1cn(C(C)(C)C)c2ncccc12 | 12.5
Cn1cnc(CNC(=O)c2ccccc2-n2cc(CN)cn2)c1 | 7.491
O=C(c1cnccn1)N1CCC(Oc2ncccc2Cl)CC1 | 1.031
CN(C1CCCCC1)S(=O)(=O)NCC1Cc2ccccc2O1 (stereo not shown) | 1.657
CC(=O)N1CCCCCC1C1CCN(Cc2nnc(C(C)(C)C)o2)CC1 (stereo not shown) | 3.448
CC(=O)N1CCC[C@@H](NCc2cccc(F)c2)[C@@H]1c1ccc(C)s1 | 4.563
COCc1ccc(CN2CCC(O)(Cn3ccc4ncccc43)CC2)o1 | 3.825
O=C(NCCOc1ccc(Cl)cn1)Nc1ccccn1 | 3.191
COc1cc(CNc2cnn(C)c2)cc2c1OCCO2 | -20.15
C=C1C(C)(C)[C@H]2CC[C@]1(C(=O)N1CCC(n3cc(CCO)nn3)CC1)C2 | 8.911
O=C1COc2ccc(S(=O)(=O)NCC3CCCO3)c3c2N1CCC3 (stereo not shown) | 6.341
CC1(C)OC(=O)N(CCCC(=O)c2ccc(F)cc2)C1=O | 9.453
CCN(CC)Cc1ccc(C(=O)N2CCN(CC(C)O)CC2)o1 (stereo not shown) | 1.754
CN(C)c1ncccc1C(=O)N1CCCN(c2cccnn2)CC1 | 1.681
CCN1CCN(C(=O)c2ccc3c(c2)OCC(=O)N3)[C@H]2CS(=O)(=O)C[C@H]21 | 3.448
CCCC(=O)NC1CCCN(c2nc3ccccc3cc2CO)C1 (stereo not shown) | -0.6061
CCS(=O)(=O)N1CCc2ncnc(OC)c2CC1 | 4.301
Cc1n[nH]c2c1C(c1cccnc1)SCC(=O)N2 (stereo not shown) | -3.96
O=C(c1ncc[nH]1)N1CCC(n2cc(-c3cccc(Cl)c3)nn2)CC1 | 0
O=C(c1cc(C2CC2)[nH]n1)N1CCN(Cc2ccc(Cl)cc2)CC1 | 0.5814
CCCC(=O)N1CCC(Nc2nc(O)cc(-c3ccsc3)n2)CC1 | 2.571
O=C1CC2(CCCC2)CC(=O)N1Cc1ncccn1 | 4
Cc1nc(C2CCCN(C(=O)c3cccc(S(C)(=O)=O)c3)C2)no1 (stereo not shown) | -0.3759
COCC1Cn2nnc(-c3cnn(C)c3)c2CN1Cc1ccc(C)s1 (stereo not shown) | 4.813
O=C(Cc1ccc(O)c(F)c1)N1CCN(CC2CC2)[C@@H]2CS(=O)(=O)C[C@@H]21 | 2.116
Cn1ccc(C(=O)N2CCN(CCc3ccccc3)CC2)cc1=O | 3.383
COc1cccc(CCNC(=O)c2ccc(=O)n(C)c2)c1 | 5.063
CCOc1ccc(Cl)cc1C(C(=O)O)N1CCC(CO)CC1 (stereo not shown) | 4.04
CN(CC1CCN(c2ccccc2)C1)c1ccc(Cn2ccnc2)cn1 (stereo not shown) | 17.39
CC1(C)CC1C(=O)NS(=O)(=O)Cc1cc(-c2ccccc2)no1 (stereo not shown) | -1.538
CCCS(=O)(=O)N1C[C@@H]2COC[C@@H](Cc3nc(C)no3)[C@@H]2C1 | 4.813
CC(NC(=O)NCCC(=O)OC(C)(C)C)c1nncn1C (stereo not shown) | 3.509
NC(=O)N1CCCC(C(=O)NCCOc2ccc3c(c2)OCO3)C1 (stereo not shown) | -1.961
CNc1nc(C(=O)NCc2cccnc2N(C)C)cs1 | 9.036
O=C1CCN(C(=O)C2(c3ccc(F)cc3)CCCCC2)CCN1 | 8.718
CC(C)OCCC(=O)NCC(O)c1c(F)cccc1F (stereo not shown) | -0.8772
CC1c2ncc(COCC3CC3)n2CCN1S(=O)(=O)N(C)C (stereo not shown) | 3.797
CN(C)[C@H]1CN(C(=O)c2ccc3sc4c(c3c2)CCNC4=O)C[C@@H]1O | 2.513
Cc1ccc(CN2CC3(CCN(C(=O)C4CC4)CC3)CC2C(=O)O)o1 (stereo not shown) | 6.806
O=C1Nc2ccccc2CNC12CCN(CC1CCNC1)CC2 (stereo not shown) | 7.692
CN1CCN(Cc2ccncc2)C(=O)C12CCN(Cc1ccsc1)CC2 | 0.4808
O=C(CCN1CCCN(c2nccs2)CC1)Nc1ccccc1 | 2.642

5 of the entries, repeated:

{"structure": "NC(=O)c1ccc(N2CCCCC2)c(NC(=O)c2cc(Br)ccc2Cl)c1", "percent effect": 17.26}
{"structure": "CCCNS(=O)(=O)c1cc2c3c(c1)c(C)cc(=O)n3CCC2", "percent effect": 7.576}
{"structure": "CCCC(=O)N1CCC(Nc2nc(O)cc(-c3ccsc3)n2)CC1", "percent effect": 2.571}
{"structure": "CCCc1cc(CN(C)C2CSCCSC2)n[nH]1", "percent effect": -0.9804}
{"structure": "CCCC(=O)NC1CCCN(c2nc3ccccc3cc2CO)C1", "stereo": "stereo not shown", "percent effect": -0.6061}